Experimental data as given in the supplement of paper PMC12067093, “Discovery and optimisation of a covalent ligand for TRIM25 and its application to targeted protein ubiquitination” (Chemical Science, 2025).
The other results are listed elsewhere or left out.

Amino acid sequences for entries named in this document (tags omitted). A change or cut given only in a name is not applied to a line headed by its entry.
UniProt Q92900: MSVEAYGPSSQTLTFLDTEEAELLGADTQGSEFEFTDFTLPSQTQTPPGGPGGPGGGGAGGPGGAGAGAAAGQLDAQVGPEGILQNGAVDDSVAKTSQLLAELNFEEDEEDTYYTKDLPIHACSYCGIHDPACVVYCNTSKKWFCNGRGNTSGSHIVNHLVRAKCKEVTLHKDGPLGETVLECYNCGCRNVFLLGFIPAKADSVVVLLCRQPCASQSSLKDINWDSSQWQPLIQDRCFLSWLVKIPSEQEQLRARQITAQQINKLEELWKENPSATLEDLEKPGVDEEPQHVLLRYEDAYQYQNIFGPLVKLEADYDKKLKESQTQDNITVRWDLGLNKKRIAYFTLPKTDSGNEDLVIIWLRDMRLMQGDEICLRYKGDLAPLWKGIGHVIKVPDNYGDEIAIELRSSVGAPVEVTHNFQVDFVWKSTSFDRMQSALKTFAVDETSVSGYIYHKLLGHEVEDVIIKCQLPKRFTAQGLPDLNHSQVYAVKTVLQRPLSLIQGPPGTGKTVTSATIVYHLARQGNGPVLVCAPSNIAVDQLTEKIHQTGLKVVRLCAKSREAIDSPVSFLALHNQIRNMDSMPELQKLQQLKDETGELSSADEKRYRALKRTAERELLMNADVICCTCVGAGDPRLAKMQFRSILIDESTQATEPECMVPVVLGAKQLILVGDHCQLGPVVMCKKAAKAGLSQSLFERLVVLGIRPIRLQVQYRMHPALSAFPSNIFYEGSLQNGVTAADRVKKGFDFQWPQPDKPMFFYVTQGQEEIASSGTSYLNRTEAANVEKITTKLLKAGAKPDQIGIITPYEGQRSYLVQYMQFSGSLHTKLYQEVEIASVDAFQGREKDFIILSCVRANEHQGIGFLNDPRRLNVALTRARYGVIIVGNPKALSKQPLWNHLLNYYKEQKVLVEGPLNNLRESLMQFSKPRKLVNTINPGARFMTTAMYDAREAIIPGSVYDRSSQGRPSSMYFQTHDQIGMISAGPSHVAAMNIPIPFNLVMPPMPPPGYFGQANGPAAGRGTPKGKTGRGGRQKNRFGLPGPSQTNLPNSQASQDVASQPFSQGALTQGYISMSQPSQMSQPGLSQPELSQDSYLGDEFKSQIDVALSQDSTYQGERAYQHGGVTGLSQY
UniProt Q9Y5K5, whole entry, looked up: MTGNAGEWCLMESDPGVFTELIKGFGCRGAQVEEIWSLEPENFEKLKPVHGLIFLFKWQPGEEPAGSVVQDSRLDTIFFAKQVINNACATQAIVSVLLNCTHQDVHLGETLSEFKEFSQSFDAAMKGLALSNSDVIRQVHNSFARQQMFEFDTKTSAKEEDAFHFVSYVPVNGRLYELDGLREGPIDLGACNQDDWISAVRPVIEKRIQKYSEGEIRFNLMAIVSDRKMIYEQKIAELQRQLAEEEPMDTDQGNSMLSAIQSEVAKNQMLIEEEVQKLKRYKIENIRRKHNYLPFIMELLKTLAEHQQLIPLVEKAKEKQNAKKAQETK
UniProt P35125: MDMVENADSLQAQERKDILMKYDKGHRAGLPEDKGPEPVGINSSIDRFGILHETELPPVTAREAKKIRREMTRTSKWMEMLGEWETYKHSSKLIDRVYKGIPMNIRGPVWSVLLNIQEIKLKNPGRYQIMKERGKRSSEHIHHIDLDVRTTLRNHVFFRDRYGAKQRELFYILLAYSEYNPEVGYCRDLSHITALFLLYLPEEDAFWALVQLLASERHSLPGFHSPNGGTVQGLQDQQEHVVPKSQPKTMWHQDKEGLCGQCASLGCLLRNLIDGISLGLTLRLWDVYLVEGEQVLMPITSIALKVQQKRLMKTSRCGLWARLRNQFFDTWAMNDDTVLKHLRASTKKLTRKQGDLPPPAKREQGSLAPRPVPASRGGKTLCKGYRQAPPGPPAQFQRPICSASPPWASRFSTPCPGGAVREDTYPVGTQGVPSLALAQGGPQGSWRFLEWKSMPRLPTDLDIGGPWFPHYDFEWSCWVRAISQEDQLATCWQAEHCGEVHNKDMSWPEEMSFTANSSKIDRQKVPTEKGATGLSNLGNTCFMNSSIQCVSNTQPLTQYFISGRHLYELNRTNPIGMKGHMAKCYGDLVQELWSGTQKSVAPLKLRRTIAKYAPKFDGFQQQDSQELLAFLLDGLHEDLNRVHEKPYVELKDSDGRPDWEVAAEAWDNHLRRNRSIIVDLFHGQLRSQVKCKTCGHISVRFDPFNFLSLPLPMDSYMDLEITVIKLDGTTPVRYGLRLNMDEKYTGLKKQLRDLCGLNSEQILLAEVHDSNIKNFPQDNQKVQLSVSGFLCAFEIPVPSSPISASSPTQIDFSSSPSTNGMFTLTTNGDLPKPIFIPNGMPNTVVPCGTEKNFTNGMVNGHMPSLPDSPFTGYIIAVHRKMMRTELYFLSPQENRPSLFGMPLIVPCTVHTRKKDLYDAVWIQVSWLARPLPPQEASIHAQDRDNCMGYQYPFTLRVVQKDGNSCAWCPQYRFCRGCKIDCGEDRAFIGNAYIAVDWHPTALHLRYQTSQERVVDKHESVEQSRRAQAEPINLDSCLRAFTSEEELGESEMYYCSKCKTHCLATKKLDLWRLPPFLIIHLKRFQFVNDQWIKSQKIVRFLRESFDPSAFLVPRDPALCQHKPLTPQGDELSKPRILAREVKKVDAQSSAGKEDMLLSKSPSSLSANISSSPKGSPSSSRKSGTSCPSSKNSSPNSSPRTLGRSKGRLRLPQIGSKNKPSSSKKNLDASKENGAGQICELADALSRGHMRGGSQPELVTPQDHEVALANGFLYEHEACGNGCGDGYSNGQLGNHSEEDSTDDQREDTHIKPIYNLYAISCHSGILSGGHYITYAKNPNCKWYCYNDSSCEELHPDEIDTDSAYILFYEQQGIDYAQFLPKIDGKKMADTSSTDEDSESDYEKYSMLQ
UniProt P07919: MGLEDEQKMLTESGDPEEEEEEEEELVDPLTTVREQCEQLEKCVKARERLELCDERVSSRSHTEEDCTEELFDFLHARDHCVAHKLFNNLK
UniProt Q70CQ2: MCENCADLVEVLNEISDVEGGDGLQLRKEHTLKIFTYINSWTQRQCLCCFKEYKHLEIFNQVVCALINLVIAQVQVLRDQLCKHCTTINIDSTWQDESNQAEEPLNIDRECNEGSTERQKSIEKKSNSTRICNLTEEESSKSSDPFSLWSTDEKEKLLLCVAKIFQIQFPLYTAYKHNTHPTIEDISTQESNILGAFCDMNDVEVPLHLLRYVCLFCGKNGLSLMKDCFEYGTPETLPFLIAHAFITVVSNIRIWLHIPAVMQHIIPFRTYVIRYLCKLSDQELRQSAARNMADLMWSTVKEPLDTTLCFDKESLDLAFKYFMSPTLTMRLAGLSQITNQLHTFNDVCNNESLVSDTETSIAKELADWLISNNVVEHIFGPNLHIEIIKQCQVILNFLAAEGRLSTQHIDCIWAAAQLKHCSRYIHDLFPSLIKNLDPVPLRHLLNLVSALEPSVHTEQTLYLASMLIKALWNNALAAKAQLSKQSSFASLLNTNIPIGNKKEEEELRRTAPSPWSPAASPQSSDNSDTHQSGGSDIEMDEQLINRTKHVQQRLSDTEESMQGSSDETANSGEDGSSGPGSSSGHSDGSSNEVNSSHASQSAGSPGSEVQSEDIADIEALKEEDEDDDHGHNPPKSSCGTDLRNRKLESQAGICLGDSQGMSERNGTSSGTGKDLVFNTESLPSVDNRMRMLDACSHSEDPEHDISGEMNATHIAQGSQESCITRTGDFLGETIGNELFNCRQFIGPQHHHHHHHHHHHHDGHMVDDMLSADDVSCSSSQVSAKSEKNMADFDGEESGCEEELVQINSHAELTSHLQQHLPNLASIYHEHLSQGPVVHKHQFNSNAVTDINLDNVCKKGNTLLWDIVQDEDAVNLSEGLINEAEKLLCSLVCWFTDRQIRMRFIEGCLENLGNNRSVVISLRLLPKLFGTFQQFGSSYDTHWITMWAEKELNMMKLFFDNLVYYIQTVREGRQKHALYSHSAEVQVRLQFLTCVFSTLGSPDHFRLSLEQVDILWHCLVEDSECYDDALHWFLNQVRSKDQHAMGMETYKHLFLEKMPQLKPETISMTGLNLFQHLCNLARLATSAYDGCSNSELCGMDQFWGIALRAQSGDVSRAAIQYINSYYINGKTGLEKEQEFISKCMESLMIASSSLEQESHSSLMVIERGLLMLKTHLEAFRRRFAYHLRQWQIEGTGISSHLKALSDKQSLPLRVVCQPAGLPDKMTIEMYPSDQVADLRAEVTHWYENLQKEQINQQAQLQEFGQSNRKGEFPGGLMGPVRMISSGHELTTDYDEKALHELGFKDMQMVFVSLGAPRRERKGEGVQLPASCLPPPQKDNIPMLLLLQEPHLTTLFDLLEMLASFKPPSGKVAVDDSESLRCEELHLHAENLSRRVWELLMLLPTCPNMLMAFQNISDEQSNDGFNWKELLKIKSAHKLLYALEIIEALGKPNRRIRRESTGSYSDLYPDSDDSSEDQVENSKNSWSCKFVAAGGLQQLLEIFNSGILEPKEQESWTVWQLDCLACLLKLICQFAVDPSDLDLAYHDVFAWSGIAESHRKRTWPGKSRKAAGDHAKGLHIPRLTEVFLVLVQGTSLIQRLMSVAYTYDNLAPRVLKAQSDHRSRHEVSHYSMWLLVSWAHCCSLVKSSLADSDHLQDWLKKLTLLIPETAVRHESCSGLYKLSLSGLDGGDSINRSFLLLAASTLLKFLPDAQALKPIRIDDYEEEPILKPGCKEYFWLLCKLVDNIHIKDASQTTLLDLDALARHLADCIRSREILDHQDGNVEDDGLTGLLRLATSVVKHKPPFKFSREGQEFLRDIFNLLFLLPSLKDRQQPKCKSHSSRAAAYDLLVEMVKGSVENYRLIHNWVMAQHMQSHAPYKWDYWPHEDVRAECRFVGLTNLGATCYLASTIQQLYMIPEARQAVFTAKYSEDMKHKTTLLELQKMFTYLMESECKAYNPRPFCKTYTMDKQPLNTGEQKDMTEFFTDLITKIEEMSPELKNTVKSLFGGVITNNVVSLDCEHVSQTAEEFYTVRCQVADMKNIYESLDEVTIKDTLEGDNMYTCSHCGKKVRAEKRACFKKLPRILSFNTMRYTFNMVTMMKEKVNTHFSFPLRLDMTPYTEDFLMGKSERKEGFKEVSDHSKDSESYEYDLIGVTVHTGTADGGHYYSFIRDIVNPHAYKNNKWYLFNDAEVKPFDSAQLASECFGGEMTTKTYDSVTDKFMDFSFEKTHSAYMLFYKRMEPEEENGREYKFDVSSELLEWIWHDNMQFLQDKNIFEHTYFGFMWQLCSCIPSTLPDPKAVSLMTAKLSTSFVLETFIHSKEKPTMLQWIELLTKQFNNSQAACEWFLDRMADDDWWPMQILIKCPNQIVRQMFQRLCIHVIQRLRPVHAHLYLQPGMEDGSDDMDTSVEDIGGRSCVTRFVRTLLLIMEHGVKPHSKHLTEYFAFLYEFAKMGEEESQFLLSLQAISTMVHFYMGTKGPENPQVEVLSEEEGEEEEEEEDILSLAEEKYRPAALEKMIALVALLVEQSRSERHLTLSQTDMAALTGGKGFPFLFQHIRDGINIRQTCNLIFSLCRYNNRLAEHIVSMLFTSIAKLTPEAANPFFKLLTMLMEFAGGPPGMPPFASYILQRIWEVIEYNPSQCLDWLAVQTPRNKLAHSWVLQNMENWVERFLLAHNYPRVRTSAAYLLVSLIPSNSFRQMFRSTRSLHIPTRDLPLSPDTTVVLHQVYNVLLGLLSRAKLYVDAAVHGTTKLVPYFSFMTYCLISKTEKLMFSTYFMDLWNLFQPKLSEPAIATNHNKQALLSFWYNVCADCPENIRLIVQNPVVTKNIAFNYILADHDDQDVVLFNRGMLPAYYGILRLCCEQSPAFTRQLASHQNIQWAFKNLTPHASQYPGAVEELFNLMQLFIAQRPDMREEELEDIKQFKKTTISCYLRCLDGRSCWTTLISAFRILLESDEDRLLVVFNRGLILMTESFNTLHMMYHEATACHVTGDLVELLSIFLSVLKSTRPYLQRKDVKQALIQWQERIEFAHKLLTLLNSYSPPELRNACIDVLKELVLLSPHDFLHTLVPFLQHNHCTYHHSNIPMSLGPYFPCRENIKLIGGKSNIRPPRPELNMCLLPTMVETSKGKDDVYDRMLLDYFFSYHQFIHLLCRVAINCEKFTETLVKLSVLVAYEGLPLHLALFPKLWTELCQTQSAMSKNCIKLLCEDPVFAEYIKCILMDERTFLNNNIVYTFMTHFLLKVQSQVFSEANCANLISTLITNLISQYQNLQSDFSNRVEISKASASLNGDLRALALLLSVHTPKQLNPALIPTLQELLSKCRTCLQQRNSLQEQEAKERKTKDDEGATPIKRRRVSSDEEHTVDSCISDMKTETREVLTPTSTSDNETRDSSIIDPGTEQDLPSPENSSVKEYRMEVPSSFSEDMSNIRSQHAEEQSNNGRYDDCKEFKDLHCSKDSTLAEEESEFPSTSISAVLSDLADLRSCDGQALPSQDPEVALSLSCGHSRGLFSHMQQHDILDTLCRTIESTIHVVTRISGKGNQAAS

Compound: Cc1cc(ccc1-c1ccccc1)C(=O)N1CCCN(CC1)C(=O)CCl [compound 10]
Test: probe-labelled cysteine peptide fold change vs DMSO (competition) (log2 fold change); higher = less target engagement (more negative = stronger competition)
Conditions: THP-1, incubation time: 4 h
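Note: competitive profiling in live THP-1 cells: cysteine peptides tagged with an iodoacetamide desthiobiotin (IA-DTB) probe, intensity after compound treatment relative to DMSO-treated cells.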

| Target | probe-labelled cysteine peptide fold change (10 µM) | probe-labelled cysteine peptide fold change (50 µM) |
| --- | --- | --- |
| UHRF2_Q96PU4_14_TCTIEDVSR (UniProt Q96PU4) | 0.0523 | 0.0481 |
| UNC45A_Q9H3U1_650_LLAAGVVSAMVCMVK (UniProt Q9H3U1) | -0.242 | -0.176 |
| UFC1_Q9Y3C8_69_CWYIHDLLK (UniProt Q9Y3C8) | 0.16 | 0.0466 |
| UGDH_O60701_20+27_ICCIGAGYVGGPTCSVIAHMCPEIR (UniProt O60701) | 0.00687 | -0.0364 |
| UNC13D_Q70J99_276_GQCHLQFQLIHK (UniProt Q70J99) | 0.000718 | -0.0494 |
| UGGT1_Q9NYU2_159_TCESDTLEALLLTASERPKPLLFK (UniProt Q9NYU2) | -0.247 | -0.466 |
| UPF1_Q92900_374_LMQGDEICLR (UniProt Q92900) | 0.0563 | -0.0152 |
| USP40_Q9NVE5_172_LYHGTIVNQIVCK (UniProt Q9NVE5) | -0.125 | -0.337 |
| UPP1_Q16831_17_AESHNDCPVR (UniProt Q16831) | -0.314 | -0.201 |
| URB2_Q14146_1380_LHNVLFSILQCHPK (UniProt Q14146) | 0.325 | 0.95 |
| UNC45A_Q9H3U1_800_AATECMCNLAMSK (UniProt Q9H3U1) | 0.0257 | -0.371 |
| UCHL5_Q9Y5K5_191_EGPIDLGACNQDDWISAVRPVIEK (UniProt Q9Y5K5) | -0.138 | 0.11 |
| UNC13D_Q70J99_505_ALLGLVQDVIGDLHQCQR (UniProt Q70J99) | 0.245 | 0.285 |
| UGDH_O60701_27_ICCIGAGYVGGPTCSVIAHMCPEIR (UniProt O60701) | 0.146 | 0.000622 |
| UBTF_P17480_309_FDGRPTKPPPNSYSLYCAELMANMK (UniProt P17480) | -0.0751 | -0.0504 |
| UHRF1_Q96T88_269_ELYANVVLGDDSLNDCR (UniProt Q96T88) | -0.181 | -0.0866 |
| USP7_Q93009_300_SFGWETLDSFMQHDVQELCR (UniProt Q93009) | 0.0196 | -0.00405 |
| UNK_Q9C0B0_147_NGLHCAFAHGPHDLR (UniProt Q9C0B0) | 0.168 | -0.0329 |
| USP42_Q9H9J4_867_SEEPCEQPLLVHPSGDHAR (UniProt Q9H9J4) | 0.0308 | 0.0592 |
| USP47_Q96K76_656_MMDLEEVIPLDCCR (UniProt Q96K76) | -0.201 | -0.201 |
| UIMC1_Q96RL1_348_NECISEDMGDEDKEER (UniProt Q96RL1) | -0.425 | -0.143 |

| Target | probe-labelled cysteine peptide fold change (10 µM) | probe-labelled cysteine peptide fold change (50 µM) |
| --- | --- | --- |
| UBXN7_O94888_478_KLSHLDYDITLQEAGLCPQETVFVQER (UniProt O94888) | 0.134 | -0.0436 |
| USP24_Q9UPU5_116_NDENGNCSGEGIEFPTTNLYELESR (UniProt Q9UPU5) | 0.035 | 0.11 |
| UHRF1_Q96T88_98_ERDSELSDTDSGCCLGQSESDK (UniProt Q96T88) | 0.0114 | -0.448 |
| USP7_Q93009_510_HCTNAYMLVYIR (UniProt Q93009) | -0.0456 | 0.138 |
| UCHL3_P15374_95_QTISNACGTIGLIHAIANNK (UniProt P15374) | -0.157 | -1.45 |
| UHRF1_Q96T88_316_VCACHLCGGR (UniProt Q96T88) | -0.0214 | -0.319 |
| UIMC1_Q96RL1_661_VPSPGMEEAGCSR (UniProt Q96RL1) | -0.455 | -0.384 |
| UHRF2_Q96PU4_297_IFLGGSEGTLNDCK (UniProt Q96PU4) | 0.179 | 0.188 |
| UCHL5_Q9Y5K5_9_MTGNAGEWCLMESDPGVFTELIK (UniProt Q9Y5K5) | -0.0942 | -0.182 |
| UPF1_Q92900_852_DFIILSCVR (UniProt Q92900) | 0.0911 | 0.259 |
| USP6_P35125_1036_AQAEPINLDSCLR (UniProt P35125) | -0.0258 | -0.195 |
| UQCRC1_P31930_380_LCTSATESEVAR (UniProt P31930) | -0.0203 | 0.213 |
| UBTF_P17480_33_GQDRWSQEDMLTLLECMK (UniProt P17480) | -0.0572 | -0.768 |
| UBR7_Q8N806_99+101_CDCGNSK (UniProt Q8N806) | -0.364 | -1.41 |
| USP9X_Q93008_1451_KFHIGCEK (UniProt Q93008) | -0.0761 | -0.229 |
| USP14_P54578_415_YEPFSFADDIGSNNCGYYDLQAVLTHQGR (UniProt P54578) | -0.0713 | 0.157 |
| UBR7_Q8N806_319_LCTCQDCMK (UniProt Q8N806) | -0.139 | -0.977 |
| UQCC2_Q9BRT2_53_EGENTQVAEPEACDQMYESLAR (UniProt Q9BRT2) | -0.281 | 0.526 |
| UFL1_O94874_32_NCIEIVNK (UniProt O94874) | 0.0252 | 0.178 |
| USP20_Q9Y2K6_8_DLCPHLDSIGEVTKEDLLLK (UniProt Q9Y2K6) | -0.158 | -0.521 |
| UHRF2_Q96PU4_541_ALALNCDAPLDDK (UniProt Q96PU4) | -0.274 | -0.113 |

Taken from above:
UHRF2_Q96PU4_541_ALALNCDAPLDDK (UniProt Q96PU4) – probe-labelled cysteine peptide fold change (50 µM): -0.113
USP7_Q93009_300_SFGWETLDSFMQHDVQELCR (UniProt Q93009) – probe-labelled cysteine peptide fold change (10 µM): 0.0196
UHRF1_Q96T88_269_ELYANVVLGDDSLNDCR (UniProt Q96T88) – probe-labelled cysteine peptide fold change (50 µM): -0.0866
UPF1_Q92900_374_LMQGDEICLR (UniProt Q92900) – probe-labelled cysteine peptide fold change (10 µM): 0.0563
UNK_Q9C0B0_147_NGLHCAFAHGPHDLR (UniProt Q9C0B0) – probe-labelled cysteine peptide fold change (50 µM): -0.0329

Next part

| Target | probe-labelled cysteine peptide fold change (10 µM) | probe-labelled cysteine peptide fold change (50 µM) |
| --- | --- | --- |
| USP19_O94966_656+659_LVCPVCAK (UniProt O94966) | -0.159 | -1.2 |
| UHRF1_Q96T88_170_DEPCSSTSRPALEEDVIYHVK (UniProt Q96T88) | -0.141 | -0.0348 |
| USP7_Q93009_721_DLLPVMCDR (UniProt Q93009) | 0.207 | 0.24 |
| USP39_Q53GS9_139_LCSISLSHINAYACLVCGK (UniProt Q53GS9) | -0.0316 | 0.117 |
| UGGT1_Q9NYU2_159_KTCESDTLEALLLTASERPK (UniProt Q9NYU2) | 0.0635 | -0.00163 |
| UROS_P10746_14_EDDCGQDPYIR (UniProt P10746) | -0.161 | 0.0974 |
| UQCRH_P07919_53_LELCDER (UniProt P07919) | -0.429 | -0.153 |
| USP4_Q13107_7_AEGGGCR (UniProt Q13107) | 0.717 | 0.861 |
| UBXN6_Q9BZV1_210_INCLEGTHEFFEAIGFQK (UniProt Q9BZV1) | -0.124 | -0.192 |
| USP7_Q93009_315_GTCVEGTIPK (UniProt Q93009) | -0.214 | -0.68 |
| UPF2_Q9HAU5_990_LCNSLEESIR (UniProt Q9HAU5) | -0.00764 | -0.0292 |
| UROS_P10746_241_ALAAQGLPVSCTAESPTPQALATGIRK (UniProt P10746) | 0.0095 | -0.0321 |
| USP22_Q9UPT9_171_KITSNCTIGLR (UniProt Q9UPT9) | -0.315 | -0.757 |
| UQCRC1_P31930_453_YIYDQCPAVAGYGPIEQLPDYNR (UniProt P31930) | -0.0717 | 0.167 |
| USP19_O94966_258_NPGKDDCAK (UniProt O94966) | -0.107 | -0.14 |
| USP34_Q70CQ2_2033_CQVADMK (UniProt Q70CQ2) | 0.111 | -0.0995 |
| USP3_Q9Y6I4_98_CDDFVVNDTK (UniProt Q9Y6I4) | -0.0308 | -0.0909 |
| UCK2_Q9BZX2_197_PAFEEFCLPTK (UniProt Q9BZX2) | -0.0609 | 0.255 |
| USP48_Q86UV5_512+514_WLDESTPTKPIDNHACLCSHDK (UniProt Q86UV5) | -0.0825 | -1.16 |
| UCKL1_Q9NWZ5_35_SETACEDR (UniProt Q9NWZ5) | -0.306 | -0.0689 |
| USP47_Q96K76_856_AGGDSGNVDDDCER (UniProt Q96K76) | -0.114 | -0.0796 |

| Target | probe-labelled cysteine peptide fold change (10 µM) | probe-labelled cysteine peptide fold change (50 µM) |
| --- | --- | --- |
| UBXN7_O94888_38_HMLEACNNNLEMAVTMFLDGGGIAEEPSTSSASVSTVRPHTEEEVR (UniProt O94888) | 0.519 | 0.00125 |
| UROS_P10746_73_AVEAAELCLEQNNKTEVWER (UniProt P10746) | 0.152 | -0.796 |
| URB1_O60287_226_EFIPCIFSSGIKEDR (UniProt O60287) | 0.245 | -0.0265 |
| UPF1_Q92900_657_SILIDESTQATEPECMVPVVLGAK (UniProt Q92900) | -0.0914 | -0.0908 |
| UROD_P06132_308_TVTLQGNLDPCALYASEEEIGQLVK (UniProt P06132) | -0.0737 | 0.0622 |
| USP3_Q9Y6I4_362_NQENGPVCSLR (UniProt Q9Y6I4) | 0.12 | -0.247 |
| USP48_Q86UV5_80_GNPNCLVGIGEHIWLGEIDENSFHNIDDPNCER (UniProt Q86UV5) | -0.35 | -0.503 |
| USP7_Q93009_799_VDVIFCDK (UniProt Q93009) | 0.0293 | 0.0935 |
| UGDH_O60701_8+9+20_KICCIGAGYVGGPTCSVIAHMCPEIR (UniProt O60701) | 0.0679 | 0.221 |
| UNC45A_Q9H3U1_853_AAAGGLAMLTSMRPTLCSR (UniProt Q9H3U1) | -0.0665 | -0.199 |
| USP34_Q70CQ2_2062_DTLEGDNMYTCSHCGK (UniProt Q70CQ2) | 0.0436 | 0.0867 |
| USP6_P35125_584_CYGDLVQELWSGTQK (UniProt P35125) | -0.0422 | -0.202 |
| UHRF1BP1L_A0JNW5_592_SECHQDQPR (UniProt A0JNW5) | 0.307 | -0.402 |
| UGGT1_Q9NYU2_880_MDFILSHAVYCR (UniProt Q9NYU2) | 0.117 | 0.39 |
| USP19_O94966_659_LVCPVCAK (UniProt O94966) | 0.0332 | -0.204 |
| USO1_O60763_383_CAVLYCFQCFLYK (UniProt O60763) | -0.161 | 0.419 |
| USP16_Q9Y5T5_726_HIKFPEILDLAPFCTLK (UniProt Q9Y5T5) | -0.238 | -0.859 |
| UQCRH_P07919_67_SHTEEDCTEELFDFLHAR (UniProt P07919) | -0.361 | -0.247 |
| USP6_P35125_981_IDCGEDR (UniProt P35125) | -0.0569 | -0.392 |
| URB2_Q14146_478_LFEEVLGVICRPAAEALR (UniProt Q14146) | 0.177 | 0.281 |
| USP14_P54578_203_GEQGQYLQQDANECWIQMMR (UniProt P54578) | 0.245 | 0.334 |
